Test results from patent EP4724483A2.
Substitutions are numbered along the chain they refer to. No constants are given. Whether binding was seen depends on the method and setting. Some results given as binding are weak or reduced against the parent protein; the word gives no strength. For some of these results: Tags and fused reporters may be left off the sequences shown. One block for each binder: values may come before it.

Amino acid sequences for entries named in this document (tags omitted). Residues count along the entry.
UniProt Q08334, residues 20-220: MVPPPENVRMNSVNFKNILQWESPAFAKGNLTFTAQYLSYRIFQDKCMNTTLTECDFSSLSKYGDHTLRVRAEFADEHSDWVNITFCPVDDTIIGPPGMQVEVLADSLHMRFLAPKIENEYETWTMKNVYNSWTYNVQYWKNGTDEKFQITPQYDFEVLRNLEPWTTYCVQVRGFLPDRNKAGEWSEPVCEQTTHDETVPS

Experiments:
[1] = target: T1, Fc-fused IL-10Rα receptor (UniProt Q13651); assay: SPR (Biacore T200), Fc-fused receptor captured, VHH dimer as analyte, 1:1 fit
T1 sequence (looked up): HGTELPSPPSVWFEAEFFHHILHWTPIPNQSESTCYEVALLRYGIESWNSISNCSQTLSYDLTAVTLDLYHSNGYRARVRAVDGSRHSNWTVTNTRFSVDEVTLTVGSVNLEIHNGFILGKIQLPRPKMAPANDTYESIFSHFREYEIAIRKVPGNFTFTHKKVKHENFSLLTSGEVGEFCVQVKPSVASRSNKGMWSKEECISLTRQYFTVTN

[2] = target: Fc-fused IL-10Rβ receptor (UniProt Q08334); assay: as above

B2: DR2503, humanized IL10Rα-IL10Rβ VHH dimer (IL-10 agonist compound of Table 1) (bispecific antibody)
chain: EVQLLESGGGLVQAGGSLRLSCAASGYSNCAYDMTWYRQAPGKEREFVSAIHSDGSTYYADSVKGRFFISRDNSKNTVYLQMNSLRPEDTAVYYCKTDPLHCRAHGGSWYSVRANYWGQGTLVTVSSGGGSEVQLVESGGGLVQPGGSLRLSCAASGYTHSSYCMGWVRQAPGKGLEGVSAIDVDGSTTYADSVKGRFTISRDNSKNTLYLQMNSLRAEDTAVYYCAAEFADCSSNYFLPPGAVRYWGQGTLVTVSSASHHHHHH
binding [1]: binds | binding [2]: binds

B3: DR2485, humanized IL-10Rα/IL-10Rβ VHH dimer (IL-10 agonist compound of Table 1) (bispecific antibody)
chain: EVQLLESGGGLVQAGGSLRLSCAASGYSNCAYDMTWYRQAPGKEREFVSAIHSDGSTRYADSVKGRFFISRDNSKNTVYLQMNSLRPEDTAVYYCKTDPLHCRAHGGSWYSVRANYWGQGTLVTVSSGGGSEVQLVESGGGLVQPGGSLRLSCAASGYTHSSYCMGWVRQAPGKGLEGVSAIDVDGSTTYADSVKGRFTISRDNSKNTLYLQMNSLRAEDTAVYYCAAEFADCSSNYFLPPGAVRYWGQGTTVTVSS
binding [1]: binds | binding [2]: binds

Results, then the binder that gave them:

binding [1]: binds | binding [2]: binds
B1: DR2463, humanized IL-10Rα/IL-10Rβ VHH dimer (IL-10 agonist compound of Table 1) (bispecific antibody)
chain: B2 chain with Y58R

binding [1]: binds | binding [2]: binds
B4: DR2520, humanized IL-10Rα/IL-10Rβ VHH dimer (IL-10 agonist compound of Table 1) (bispecific antibody)
chain: B3 chain with D54S, R58Y

binding [1]: binds | binding [2]: binds
B5: DR2519, humanized IL-10Rα/IL-10Rβ VHH dimer (IL-10 agonist compound of Table 1) (bispecific antibody)
chain: B3 chain with R58Y
